Drawing on publication PMC9489782, this text covers binding for one substance.

By UniProt entry, the sequences of proteins in these tests, tags left out. Residues count along the entry.
UniProt Q9BXP8, residues 235-1791: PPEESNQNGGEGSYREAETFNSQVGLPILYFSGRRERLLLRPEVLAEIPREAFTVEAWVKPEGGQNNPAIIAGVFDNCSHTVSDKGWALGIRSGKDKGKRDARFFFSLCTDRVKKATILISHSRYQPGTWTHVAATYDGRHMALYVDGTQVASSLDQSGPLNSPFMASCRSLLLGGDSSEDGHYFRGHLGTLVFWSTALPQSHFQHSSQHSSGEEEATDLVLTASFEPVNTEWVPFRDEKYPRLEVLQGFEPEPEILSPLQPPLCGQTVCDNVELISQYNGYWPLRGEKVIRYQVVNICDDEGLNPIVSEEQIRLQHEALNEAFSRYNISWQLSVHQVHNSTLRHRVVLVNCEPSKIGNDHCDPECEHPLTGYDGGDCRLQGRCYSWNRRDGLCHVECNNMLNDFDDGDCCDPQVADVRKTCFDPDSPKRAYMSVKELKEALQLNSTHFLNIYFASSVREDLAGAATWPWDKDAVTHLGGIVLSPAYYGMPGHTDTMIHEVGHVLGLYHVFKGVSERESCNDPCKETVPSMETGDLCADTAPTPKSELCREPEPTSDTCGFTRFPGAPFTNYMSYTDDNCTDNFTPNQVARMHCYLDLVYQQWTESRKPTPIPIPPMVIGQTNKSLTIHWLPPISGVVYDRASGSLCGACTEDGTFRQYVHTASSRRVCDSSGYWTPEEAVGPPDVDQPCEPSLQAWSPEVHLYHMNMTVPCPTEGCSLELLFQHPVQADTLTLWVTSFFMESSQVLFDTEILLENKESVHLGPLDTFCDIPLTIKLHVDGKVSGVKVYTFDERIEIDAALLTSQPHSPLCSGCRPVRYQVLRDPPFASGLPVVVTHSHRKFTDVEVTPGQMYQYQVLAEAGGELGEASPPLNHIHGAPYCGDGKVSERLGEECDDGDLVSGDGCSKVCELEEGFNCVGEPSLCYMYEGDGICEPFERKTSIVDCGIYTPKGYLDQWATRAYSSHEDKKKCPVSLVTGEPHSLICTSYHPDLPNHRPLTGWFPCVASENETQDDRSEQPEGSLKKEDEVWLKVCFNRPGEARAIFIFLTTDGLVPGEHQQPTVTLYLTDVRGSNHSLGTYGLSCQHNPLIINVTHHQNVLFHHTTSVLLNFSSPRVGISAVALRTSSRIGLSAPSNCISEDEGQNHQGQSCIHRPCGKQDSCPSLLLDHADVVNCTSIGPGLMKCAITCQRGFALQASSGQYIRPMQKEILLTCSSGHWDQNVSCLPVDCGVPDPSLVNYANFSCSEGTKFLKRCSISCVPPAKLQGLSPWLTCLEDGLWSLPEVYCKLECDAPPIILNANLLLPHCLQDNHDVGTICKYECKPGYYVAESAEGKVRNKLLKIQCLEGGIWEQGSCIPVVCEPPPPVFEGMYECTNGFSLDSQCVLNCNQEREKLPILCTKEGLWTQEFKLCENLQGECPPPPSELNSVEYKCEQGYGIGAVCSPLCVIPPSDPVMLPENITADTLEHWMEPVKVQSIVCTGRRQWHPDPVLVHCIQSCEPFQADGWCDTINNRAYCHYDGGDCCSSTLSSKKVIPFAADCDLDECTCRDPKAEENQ

For this test, the target named is WT PAPP-A2 (human) (UniProt Q9BXP8). The test can be described thus: SEC-MALS; Superdex200 Increase 10/300 GL in PBS, 0.5 mL/min; PAPP-A and PAPP-A (E483A) 100 uL of 1 mg/mL; PAPP-A2 100 uL of 1, 3 and 6 mg/mL; both purified.

These are yes or no findings as the source states them, for the method shown.

In the case of “WT PAPP-A2 (from UniProt Q9BXP8 235-1791) (enzyme)”, the binding result was “no binding (tested: 1 mg/mL, 3 mg/mL, and 6 mg/mL)”.
